These results are taken from publication PMC8961561.

Results are given in words; binding and its absence hold for the method and conditions named. Some entries that bind do so weakly or less than the wild type.

The target of test [1] is T1, RAS fragment ….
T1 sequence (peptide): SYRKQVVIDGETCLLD
Kind of test: peptide or protein array; PEPscan: overlapping dodecapeptides (two amino acid shift) spanning the complete sequence of one partner on a cellulose membrane; saturated with 3% non-fat dry milk/3% BSA; incubated with the purified protein partner (4 mg/mL, 4 °C, overnight); antibody against that protein, HRP-conjugated secondary antibody, ECL; both purified.

The target in test [2] is T2, TGFR2 fragment ….
T2 sequence (peptide): CKFCDVRFSTCDNQ
The test is described as above.

B1: RalGDS (protein, UniProt Q03386 1-895)
chain: MVQRMWAEASGPIGGAEPLFPGSRRSRSVWDAVRLEVGVPDSCPVVLHSFTQLDPDLPRLESSTQEIGEELINGVIYSISLRKVQLYPGATKGQRWLGCENESALNLYETCKVRTVKAGTLEKLVEHLVPAFQGSDLSYVTVFLCTYRAFTTTQQVLDLLFKRYGCILPYSSEDGGPQDQLKNAISSILGTWLDQYSEDFCQPPDFPCLKQLVAYVQLNMPGSDLERRAHLLLAQLEDLEPSEVEPEALSPAPVLSLKPASQLEPAPALLLTPSRAVASTPVREPAPVPVLASSPVVAPASELEPALEPPLDPEPTLAPAPELDPTVSQSLHLEPAPVPAPALEPSWPLPETTENGLCAKPHLLLFPPDLVAEQFTLMDAELFKKVVPYHCLGSIWSQRAKKGKEHLAPTIRATVAQFNNVANCVITTCLGDQSMKASDRARVVEHWIEVARECRVLKNFSSLYAILSALQSNAIHRLKKTWEEVSRGSFRVFQKLSEIFSDENNYSLSRELLIKEGTSKFATLEMNPRRTQRRQKETGVIQGTVPYLGTFLTDLVMLDTAMKDYLYGRLINFEKRRKEFEVIAQIKLLQSACNNYSIVPEEHFGAWFRAMGRLSEAESYNLSCELEPPSESASNTLRSKKSTAIVKRWERRQAPSTELSTSSSAHSKSCDQLRCSPYLSSGDITDALSVHSAGSSTSDVEEINMSFVPESPDGQEKKFWESASQSSPETSGISSASSSTSSSSASTTPVSTTRTHKRSVSGVCSYSSSLPLYNQQVGDCCIIRVSLDVDNGNMYKSILVTSQDKAPTVIRKAMDKHNLDEDEPEDYELLQIISEDHKLKIPENANVFYAMNSAANYDFILKKRAFTKGAKVKHGASSTLPRMKQKGLRIARGIF
With B1, the binding entry in test [1] is recorded as “binds”.

B2: Tumor Growth Factor beta 3 (TGF-beta3) (protein, UniProt P10600 24-412)
chain: LSTCTTLDFGHIKKKRVEAIRGQILSKLRLTSPPEPTVMTHVPYQVLALYNSTRELLEEMHGEREEGCTQENTESEYYAKEIHKFDMIQGLAEHNELAVCPKGITSKVFRFNVSSVEKNRTNLFRAEFRVLRVPNPSSKRNEQRIELFQILRPDEHIAKQRYIGGKNLPTRGTAEWLSFDVTDTVREWLLRRESNLGLEISIHCPCHTFQPNGDILENIHEVMEIKFKGVDNEDDHGRGDLGRLKKQKDHHNPHLILMMIPPHRLDNPGQGGQRKKRALDTNYCFRNLEENCCVRPLYIDFRQDLGWKWVHEPKGYYANFCSGPCPYLRSADTTHSTVLGLYNTLNPEASASPCCVPQDLEPLTILYYVGRTPKVEQLSNMVVKSCKCS
Consider B2, for which, in test [2], the binding entry is reported as “binds”.
